# Reference: the supplement of paper PMC8256030
# Values joined by “and” are separate entries in the source; they are usually repeats but may differ in a detail not shown here. Equal entries are not always repeated. Structures can show the parent of a compound that is named as a salt. Some of the results follow. Repeats in this data set agree poorly, so a single value says little.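 HEK293T cells were given each compound shortly before transfection with a reporter in which red mCherry is followed by the SARS-CoV-2 frameshift element and then GFP in the −1 frame, so GFP appears only after frameshifting.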
# Test system: HEK293T
# Assay: percent viability (nuclei count) relative to control; higher = more viable cells
# Details: 10 µM; 24 h
row,Compound,percent viability
1,COC[C@@H](NC(C)=O)C(=O)NCc1ccccc1 [lacosamide],299%
2,COc1ccc2c3c1O[C@H]1C(=O)CC[C@@]4(O)[C@@H](C2)N(C)CC[C@]314 [oxycodone],255%
3,Cc1ccc(NC2=NCCN2)c(Cl)c1 [tolonidine],18.4%
4,CCC1(c2ccccc2)CCC(=O)NC1=O (stereo not given) [glutethimide],271%
5,CNC(C)CC1CCCCC1 (stereo not given) [propylhexedrine],274%
6,Cc1ncc(CNC(=O)N(CCCl)N=O)c(N)n1 [nimustine],247%
7,C[C@]12CC[C@H]3[C@@H](CCC4=C(Cl)C(=O)CC[C@@]43C)[C@@H]1CC[C@@H]2O [clostebol],60.9%
8,NC(=O)C[S@@+]([O-])C(c1ccccc1)c1ccccc1 [armodafinil],300%
9,CC(C)NC1CCn2c(=O)[nH]c3cccc(c32)C1O (stereo not given) [zilpaterol],55.1%
10,CN1[C@@H]2C[C@@H](OC(=O)[C@H](CO)c3ccccc3)C[C@H]1[C@@H]1O[C@@H]12 [Scopolamine],254%
11,C=CCC1(C(C)CCC)C(=O)NC(=O)NC1=O (stereo not given) [secobarbital],334%
12,COc1ccc2c3c1O[C@H]1[C@@H](OC(C)=O)C=C[C@H]4[C@@H](C2)N(C)CC[C@@]341,327%
13,CC1Sc2c(C(=O)O)c(=O)c3cc(F)c(N4CCNCC4)cc3n21 (stereo not given) [ulifloxacin],174%
14,CCn1cc(C(=O)O)c(=O)c2cc3c(cc21)OCO3 [oxolinic acid],335%
15,Cc1cc(O)ccc1Cl,203%
16,Cc1ccccc1-n1c(/C=C/c2ccccn2)nc2ccccc2c1=O [piriqualone],85.7%
17,C[C@]12CC[C@H]3[C@@H](CCC4=CC(=O)CC[C@@]43C)[C@@H]1CC[C@@H]2O [testosterone],155% and 285%
18,Oc1ccc2c3c1O[C@H]1[C@@H](O)CC[C@@]4(O)[C@@H](C2)N(CC2CCC2)CC[C@]314 [Nalbuphine],193%
19,C#CCN(C)[C@H](C)Cc1ccccc1 [(R)-(-)-Deprenyl·HCl],251%
20,OC1(c2ccc(Cl)cc2)c2ccccc2C2=NCCN21 (stereo not given) [mazindol],97.7%

# Arranged by formula weight (ascending): some entries from above
row,Compound,percent viability
1,COC[C@@H](NC(C)=O)C(=O)NCc1ccccc1 [lacosamide],299%
9,CC(C)NC1CCn2c(=O)[nH]c3cccc(c32)C1O (stereo not given) [zilpaterol],55.1%
13,CC1Sc2c(C(=O)O)c(=O)c3cc(F)c(N4CCNCC4)cc3n21 (stereo not given) [ulifloxacin],174%

# (more compounds)

row,Compound,percent viability
1,NC(=O)C[S+]([O-])C(c1ccccc1)c1ccccc1 (stereo not given) [modafinil],98.3%
2,O=C1Nc2ccc(Cl)cc2C(c2ccccc2Cl)=NC1O (stereo not given) [lorazepam],340%
3,CC(C)(C)NCC(O)c1ccc(O)c(O)c1 (stereo not given) [colterol],147%
4,Cc1ccc(N=CN(C)C=Nc2ccc(C)cc2C)c(C)c1,169%
5,CCN(CC)CCN1C(=O)CN=C(c2ccccc2F)c2cc(Cl)ccc21 [flurazepam],120%
6,CCNC1(c2cccs2)CCCCC1=O (stereo not given),44.3%
7,O=[N+]([O-])C(Br)(CO)CO [bronopol],283%
8,Oc1ccc2c3c1O[C@H]1c4oc5ccccc5c4C[C@@]4(O)[C@@H](C2)N(CC2CC2)CC[C@]314 [Naltriben methanesulfonate hydrate],291%
9,CN1C[C@H](C(=O)N[C@]2(C)O[C@@]3(O)[C@@H]4CCCN4C(=O)[C@H](Cc4ccccc4)N3C2=O)C=C2c3cccc4[nH]cc(c34)C[C@H]21,188%
10,CC(C)(O)C(Cl)(Cl)Cl,340%
11,NCC1(CC(=O)O)CCCCC1,133%
12,NN=C(N)N,168%
13,CN1C(=O)CN=C(c2ccccc2)c2cc(Cl)ccc21 [diazepam],29.2%
14,C=CCN1CC[C@]23CCCC[C@H]2[C@H]1Cc1ccc(O)cc13 [Lorfan],228%
15,COC(=O)[C@@H]1[C@H]2CC[C@@H](C[C@@H]1O)N2C,249%
16,CN1C(=O)[C@@H](NC(=O)c2cc3ccccc3[nH]2)N=C(c2ccccc2)c2ccccc21 [devazepide],159%
17,CCCN1CCC[C@@H]2Cc3n[nH]cc3C[C@H]21 [quinpirole],223%
18,CCCC[N+]1(C)[C@H]2CC(OC(=O)C(CO)c3ccccc3)C[C@H]1[C@H]1O[C@H]12 (stereo not given in full) [Scopolamine N-butyl],222%
19,[O-][n+]1ccccc1[S-].[O-][n+]1ccccc1[S-].[Zn+2],82.1%
20,Clc1ccc(C(OCCN2CCCCC2)c2ccccc2)cc1 (stereo not given) [cloperastine],286%
